Values from PubChem BioAssay AID1159578 (Peter MacCallum Cancer Centre, 2015)

- Assay: 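Genome-wide hunt for genes controlling movement of lymphatic endothelial cells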 (primary screen)
- Cell system: human lymphatic endothelial cells
- Reagents: siRNA pool against human genes, 40 nM
- Time to read-out: 48 h after transfection
- Measurement: 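Cells stained with dye and imaged after a scratch; covered wound area and nuclei counted, duplicates averaged, migration set against mock wells and turned into a robust z-score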
- Reading the numbers: migration robust z-score: higher = faster migration into the scratch; migration relative to mock: higher = more scratch area covered than mock; nuclei per well: higher = more cells in the well
- Active means: 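Migration changed when robust z exceeds 2 or falls below -2 and mean nuclei number is at least 3300; otherwise not called changed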
- Calls: active = migration changed; inactive = no migration change, or too few cells
The deposit covers about 18,000 reagents; below is a random part of them. About 1,030 of them (5.7%) were called active. 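Inactive calls also include pools with fewer than 3300 nuclei, whose migration was not assessed.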 Raw values are not corrected between plates. Unmarked entries are inactive. Reagent sequences are not shown.

no.	gene	migration robust z-score	migration class with cell-count check	migration relative to mock	nuclei per well, duplicate mean
1	APCDD1	0.05	migration z between -2 and 2; enough cells	0.9	5694
2	SPMIP5	-0.14	migration z between -2 and 2; enough cells	0.85	5791
3	TMEM132E	-3.13 (active)	migration z below -2; enough cells	0.08	5057
4	SLC30A9	-1.86	migration z between -2 and 2; enough cells	0.4	3557
5	CDKN1B	-0.02	migration z between -2 and 2; enough cells	0.8	5720
6	NOL6	0.08	migration z between -2 and 2; enough cells	0.91	4892
7	RNGTT	-0.13	migration z between -2 and 2; enough cells	0.78	4892
8	ZNF607	-0.22	migration z between -2 and 2; enough cells	0.82	5894
9	FOXO3	0.28	migration z between -2 and 2; enough cells	0.96	6999
10	RNF186	0.42	migration z between -2 and 2; enough cells	0.88	4544
11	RFX1	-0.16	migration z between -2 and 2; enough cells	0.77	5334
12	RPGR	-0.05	migration z between -2 and 2; enough cells	0.88	5486
13	FDFT1	-1.44	migration z between -2 and 2; enough cells	0.52	6492
14	SUB1	0.24	migration z between -2 and 2; enough cells	0.85	5911
15	EPHX3	-1.64	migration z between -2 and 2; enough cells	0.49	5556
16	CAAP1	0.42	migration z between -2 and 2; enough cells	1	5692
17	TC2N	-1.08	migration z between -2 and 2; enough cells	0.6	4916
18	OR2M5	0.58	migration z between -2 and 2; enough cells	1.04	5293
19	ESCO1	-0.3	migration z between -2 and 2; enough cells	0.81	5236
20	PPA1	-0.96	migration z between -2 and 2; enough cells	0.62	4598
21	DPP7	-0.54	migration z between -2 and 2; enough cells	0.7	7017
22	SNUPN	1.25	migration z between -2 and 2; enough cells	1.04	4636
23	OR56A4	0.45	migration z between -2 and 2; enough cells	0.99	5826
24	KIF23	2.49 (active)	migration z above 2; enough cells	1.29	3622
25	CRHBP	0.62	migration z between -2 and 2; enough cells	1.04	5928
26	BEND3	0.53	migration z between -2 and 2; enough cells	1.02	4674
27	ABI2	-0.69	migration z between -2 and 2; enough cells	0.7	5880
28	CTLA4	1.69	migration z between -2 and 2; enough cells	1.33	6037
29	TMIGD2	-2.75 (active)	migration z below -2; enough cells	0.17	5088
30	SPTBN1	-1.02	migration z between -2 and 2; enough cells	0.61	6104
31	SNX6	0.3	migration z between -2 and 2; enough cells	0.97	5714
32	CSTPP1	-0.18	migration z between -2 and 2; enough cells	0.84	5926
33	WDR54	0.12	migration z between -2 and 2; enough cells	0.92	6600
34	MEOX1	0.21	migration z between -2 and 2; enough cells	0.84	6924
35	MRPL16	-0.72	migration z between -2 and 2; enough cells	0.7	5336
36	RUNDC3A	0.41	migration z between -2 and 2; enough cells	0.99	5874
37	ZC2HC1A	-0.02	migration z between -2 and 2; enough cells	0.88	4782
38	QARS1	-0.56	migration z between -2 and 2; enough cells	0.74	8438
39	KEAP1	-0.71	migration z between -2 and 2; enough cells	0.7	4574
40	SHC1	-0.54	under 3300 nuclei; migration not judged	0.7	1598
41	STC2	3.34 (active)	migration z above 2; enough cells	1.75	5966
42	PON1	-0.18	migration z between -2 and 2; enough cells	0.77	5546
43	SMARCA4	-0.78	migration z between -2 and 2; enough cells	0.66	4294
44	IFNL2	0.28	migration z between -2 and 2; enough cells	0.96	6217
45	RNF10	1.14	migration z between -2 and 2; enough cells	1.02	6564
46	TSKU	0.62	migration z between -2 and 2; enough cells	1.04	5492
47	TCEAL7	-0.58	migration z between -2 and 2; enough cells	0.74	6113
48	COL6A2	-1.31	migration z between -2 and 2; enough cells	0.54	4332

11 entries from above, set out differently.
gene,migration robust z-score,migration class with cell-count check,migration relative to mock,"nuclei per well, duplicate mean"
RNF186,0.42,migration z between -2 and 2; enough cells,0.88,4544
RFX1,-0.16,migration z between -2 and 2; enough cells,0.77,5334
RPGR,-0.05,migration z between -2 and 2; enough cells,0.88,5486
FDFT1,-1.44,migration z between -2 and 2; enough cells,0.52,6492
SUB1,0.24,migration z between -2 and 2; enough cells,0.85,5911
EPHX3,-1.64,migration z between -2 and 2; enough cells,0.49,5556
CAAP1,0.42,migration z between -2 and 2; enough cells,1,5692
TC2N,-1.08,migration z between -2 and 2; enough cells,0.6,4916
OR2M5,0.58,migration z between -2 and 2; enough cells,1.04,5293
ESCO1,-0.3,migration z between -2 and 2; enough cells,0.81,5236
PPA1,-0.96,migration z between -2 and 2; enough cells,0.62,4598

The results go on:
no.	gene	migration robust z-score	migration class with cell-count check	migration relative to mock	nuclei per well, duplicate mean
49	PEX10	0.68	migration z between -2 and 2; enough cells	0.94	6390
50	KDR	-2.93 (active)	migration z below -2; enough cells	0.24	3695
51	ATAD2	0.21	migration z between -2 and 2; enough cells	0.84	5738
52	TMEM38B	0.67	migration z between -2 and 2; enough cells	1.06	5741
53	RALGDS	1.34	migration z between -2 and 2; enough cells	1.23	5434
54	DNAAF10	0.64	migration z between -2 and 2; enough cells	1.05	7073
55	TMEM184A	-1.5	migration z between -2 and 2; enough cells	0.5	5358
56	NCOA3	1.33	migration z between -2 and 2; enough cells	1.06	6161
57	ULK1	1.29	migration z between -2 and 2; enough cells	1.06	5608
58	PAFAH1B3	0.44	migration z between -2 and 2; enough cells	0.89	4574
59	TEAD1	1.42	migration z between -2 and 2; enough cells	1.08	4605
60	MBLAC1	-0.44	migration z between -2 and 2; enough cells	0.77	6115
61	CLIP3	-1.23	migration z between -2 and 2; enough cells	0.56	6762
62	PCDHGA8	3.41 (active)	migration z above 2; enough cells	1.77	5858
63	SYNE3	-1.36	migration z between -2 and 2; enough cells	0.53	4314
64	KANK2	1.58	migration z between -2 and 2; enough cells	1.29	6384
65	BAG6	0.56	migration z between -2 and 2; enough cells	1.03	6006
66	NSD1	0.36	migration z between -2 and 2; enough cells	0.88	5970
67	RRP1B	0.02	migration z between -2 and 2; enough cells	0.88	5030
68	DNTTIP1	-0.75	migration z between -2 and 2; enough cells	0.66	6024
69	TBC1D4	0.76	migration z between -2 and 2; enough cells	1.07	5700
70	MOB4	0.39	migration z between -2 and 2; enough cells	0.98	5157
71	ERG28	0.57	migration z between -2 and 2; enough cells	1.04	5628
72	FEN1	-1.01	migration z between -2 and 2; enough cells	0.61	5549
73	PLEKHS1	-1.08	migration z between -2 and 2; enough cells	0.6	4436
